Measured values as given in US10731222B2 (RNA Diagnostics Inc., priority 2013, dated 2020).
At least one compound was matched to its structure with a doubt left.

Tests used:
Format in all cases: in vivo, human
[1] = tested on: circulating tumour cells (CTCs); test: Circulating tumor cells (CTCs) assay, CellSearch, Group 2; conditions: p=0.6574
Description: (§1) Patients received a single dose of 4 mg diluted in 100 ml saline, intravenously, in about 15 mins of ZA without any other active concomitant treatments (i.e chemotherapy or endocrine therapy) (Groups 1 and 2). In patients with locally advanced disease, the biological evaluations were performed at baseline on the diagnostic biopsy and repeated after 14 days from ZA administration on a second tru-cut biopsy (Group 1) whereas in patients with bone metastatic disease, CTCs counts along with serological markers were performed before ZA administration, at 48 hours and at 14 days after treatment (Group 2) (FIG. 9).
The enumeration of CTC in whole blood was done by the CellSearch System according to manufacturers instruction as described by Cristofanilli et al.. The identification and count of CTCs was performed using the CellSearch Analyzer, a semi-automated fluorescence-based microscopy system that permits computer-generated reconstruction of cellular images. […] Results are expressed as number of cells/7.5 ml of blood. […]
To quantify the fraction of apoptotic CTC, M30-positive CTC were detected integrating CTC assay with a specific mAb (M30 PEVIVA AB, Bromma, Sweden), recognizing the M30 neoepitope of cytokeratin 18 (CK18), analyzed with the fourth filter of the CellSearch System; results were expressed as the total number of CTC and M30-positive CTC per 7.5 mL of blood as described elsewhere.

[2] = tested on: cytokeratin 18 (M30, M65); test: M30/M65 Apoptosense assay, Group 2
Description: Blood samples were collected from patients at the same time-point as indicated for Group 2 into the K2EDTA anticoagulant tubes, and then centrifuged at 1,500 g for 10 min to obtain plasma. Levels of M30 and M65 were measured in blood samples drawn at 8 am before starting ZA administration and thereafter at 48 hours and at 14 days after the initial treatment (FIG. 9).
M30 and M65 measurements were tested in triplicate accordingly to the manufacturers' instructions (PEVIVA AB, Bromma, Sweden) as previously described in detail.
The M30 is a biomarker assay for the quantitative determination of caspase-cleaved cytokeratin 18 (CK18) released from apoptotic carcinoma cells into blood and may estimate the tumour response to the treatment. Total CK18 (cleaved and non cleaved) is detected by M65. The levels of M30 and M65 were determined on blood samples of metastatic breast cancer patients (Group 2) collected at baseline, at 48 hours and at 14 days after ZA administration at the same time point of CTCs evaluation to assess apoptosis and cell death induced by the treatment. […] M65 levels were statistically significant higher after drug administration (14 days) when compared to the baseline (370.69 U/L versus 335.3 U/L; range 174.2-1646.5 versus 113.7-596.4; p=0.039).

[3] = tested on: locally advanced breast cancer; test: Immunohistochemistry of tumour markers (Ki67, CD31, p53, bcl-2, caspase 3) before and 14 days after single-dose ZA, Group 1
Description: Enrolled patients received 4 mg single dose of ZA (Zometa®, Novartis, Milan, Italy) before starting any treatment (biological window of 14 days) (FIG. 9). Markers of tumor proliferation/death were tested immunohistochemically and at ATP and RNA level in tumour specimens obtained before and after ZA administration in those patients with locally advanced breast cancer (Group 1) and the count of circulating tumour cells (CTCs) by CellSearch System along with serological markers as marker of tumor dissemination were carried out in metastatic patients (Group 2).
as §1, with “In” for “Patients received a single dose of 4 mg diluted in 100 ml saline, intravenously, in about 15 mins of ZA without any other active concomitant treatments (i.e chemotherapy or endocrine therapy) (Groups 1 and 2). In”
Immunohistochemical evaluation was performed on formalin-fixed paraffin-embedded tumor samples obtained at diagnosis and at 14th days on tru-cut. ER, PgR, overexpression of HER2 and Ki67, CD31 with p53 and bcl-2 staining were performed at the Pathology Unit of the Azienda Ospedaliera-Istituti Ospitalieri of Cremona (Italy). The immunohistochemical methodology is fully described elsewhere. […]

[4] = tested on: locally advanced breast cancer; test: Clinical tumour size after single-dose ZA, Group 1; conditions: Group 1, after single 4 mg dose
tumour biopsy samples = test: Maximal RDI of tumour biopsies before and after the first cycle of neo-adjuvant therapy; conditions: maximal RDI per tumour sample

O=P(O)(O)C(O)(Cn1ccnc1)P(=O)(O)O [ZA, zoledronic acid]
alive CTC, baseline vs 14 days [1]: No differences | M65 level change ([2]; 48 hours from infusion, p=0.1128): non-significant increase | change in serum M30 level ([2]; before vs after ZA, Group 2): no statistically significant change | caspase 3 expression before and after treatment ([3]; 14 days): no changes | p53 expression ([3]; 14 days vs baseline, 31 patients, p=0.3094): not affected | clinical variation in tumour size [4]: no clinical variation | RDI values after the first cycle (tumour biopsy samples): increased in some patients
